{"source": "PubChem BioAssay AID588856", "about": "(National Center for Advancing Translational Sciences (NCATS), 2011)", "note": "Most of the hits are listed elsewhere, so they are rarer here than in the full data. Active and inactive are the calls of the source. The call rests on the fitted dose curve; in most records, active means well fitted cell-killing curve with a large enough effect; inactive means no such curve, though single readings can be large or run the other way."}
{"assay": "qHTS for Inhibitors of TGF-b: Cytotox Counterscreen", "conditions": "HepG2 CAGA-GFP viability, ATP luminescence, 18 h; at 46.1 µM (top of the series)", "description": "TGF-b is a main component in the TGF-b signaling pathway which plays diverse roles in cellular and development pathways. TGF-b is mediated by transcription factors called \"Smads\". Although the Smad-dependent pathway is the primary canonical TGF-b signaling mode, TGF-b1 can also activate alternative signaling pathways, including those involving MAPK (ERK, JNK and p38). This interaction may mediate or enhance Smad-dependent responses, or can exert Smad-independent effects. The complexity of this signaling cascade allows the TGF-b superfamily to perform unique, overlapping or redundant functions. […] We aim to identify Smad3-small molecule antagonists using a quantitative high throughput screening (qHTS) approach. […]\nSuspensions of trypsinized HEPG2 CAGA-GFP cells were dispensed into white, tissue culture-treated, solid 1536-well plates at 5uL/well (1000 cells/well final concentration) in DMEM medium supplemented with 1% FBS. […] Two uL of CellTiter Glo (Promega), a luminescence-based viability reagent, was dispensed, followed by a 10 minute room temperature incubation. The plates were then measured on a PerkinElmer ViewLux plate reader for luminescence (clear filter) using a 5 second exposure. The %Activity was determined from the corrected luminescence values. […]\nConcentration-response curves were fitted to the signals arising from the resulting luminescence. […]"}
{"smiles": "COc1c(O)cc2c(c1OC)-c1ccc(OC)c(=O)cc1C(NC(C)=O)CC2", "note": "(stereo unspecified)", "activity change, negative = cytotoxicity": "inactive: -28.1%"}
